The source of these data is the supplement of paper PMC10398353.

Values joined by “and” are separate entries in the source; they are usually repeats but may differ in a detail not shown here. Equal values may be shown once. Where a name gives a salt, the structure may show the parent alone. ± gives the standard deviation of the averaged measurements. The list shows a part of the results. This is a noisy data set.

The assay has as its system Salmonella enterica serovar Typhimurium ST313 D23580. Kind of assay: normalized bacterial growth (OD600 20 h minus 0 h, interquartile-mean normalized) (fraction of plate interquartile mean); higher = more bacterial growth (less inhibition). The settings on record: LPM (pH 5.8, low phosphate, low Mg2+), concentration: 10 µM, temperature: 37 °C.
For the compound `O=C(O)CP(=O)(O)O` [Phosphonoacetic acid], the normalized bacterial growth came to 1.02.
As for `N#CC(C#N)=C(N)/C(C#N)=C/c1cc(O)c(O)c(O)c1` [Tyrphostin 51], the figure is 0.897; as for `CO/N=C(\C(=O)N[C@@H]1C(=O)N2C(C(=O)OC(C)OC(C)=O)=C(COC(N)=O)CS[C@H]12)c1ccco1` (stereo partly drawn), 1.12; as for `CCN(CC)CCCCCCCCOC(=O)c1cc(OC)c(OC)c(OC)c1` [TMB-8 hydrochloride], 0.756.
As for `C[C@@H]1O[C@@H](O[C@@H]2[C@@H](O)[C@H](O)[C@@H](CO)O[C@H]2c2c(O)cc(O)c3c(=O)cc(-c4ccc(O)cc4)oc23)[C@H](O)[C@H](O)[C@H]1O`, the normalized bacterial growth came to 1.09.
`CNc1ccccc1C(=O)N1CCc2c([nH]c3ccccc23)C1=O` had a normalized bacterial growth of 0.857.
As for `COc1ccc2c(=O)c(CC(=O)O)coc2c1`, the figure is 1.17.
As for `COc1ccccc1OCC(O)COC(N)=O` (stereo not drawn), the figure is 1.19; as for `Nc1c2c(nc3ccccc13)CCCC2O` (stereo not drawn) [Hydroxytacrine maleate], 0.968.
For `Cc1cc(N)c2ccccc2[n+]1CCCCCCCCCC[n+]1c(C)cc(N)c2ccccc21` [Dequalinium chloride hydrate] the value was 1.01; for `C=CCCCCCCCCC(=O)[O-].C=CCCCCCCCCC(=O)[O-].[Zn+2]`, 1.06; for `COC(=O)Nc1nc2cc([S+]([O-])c3ccccc3)ccc2[nH]1` (stereo not drawn), 1.03.
Turning to `O=c1cc(-c2ccccc2)oc2cccc(O)c12`, the normalized bacterial growth is 1.16.
Regarding `C[C@@H]1C(=O)NC2=Nc3cccc(Cl)c3CN21` [Quazinone], the normalized bacterial growth is 0.893.
For `Nc1ccccc1C(=O)CC(N)C(=O)O` (stereo not drawn) the value was 0.98; for `CC(N)(Cc1ccc(O)c(O)c1)C(=O)O` (racemic) ["()-3-(3,4-dihydroxyphenyl)-2-methyl-DL-alanine"], 0.966; for `CCN(CC)CCOCCOC(=O)C(CC)(CC)c1ccccc1`, 0.931.
For `CCCOc1ccc(C(=O)OCCN(CC)CC)cc1N` the value was 0.745; for `CC1=C(/C=C/C(C)=C\C=C\C(C)=C\C(=O)O)C(C)(C)CCC1`, 0.94.
For `CN(C)CCC(c1ccc(Br)cc1)c1ccccn1` (single isomer, unassigned; (+)) [(+)-Brompheniramine maleate] the value was 0.714; for `CC[C@@H](CO)NCCN[C@@H](CC)CO`, 1.17.
Compound `CC[C@@H](CO)NCCN[C@@H](CC)CO` [Ethambutol dihydrochloride] registered a normalized bacterial growth of 0.846.
As for `CC(=O)OCC(=O)[C@@]1(OC(C)=O)[C@@H](C)C[C@H]2[C@@H]3C[C@H](F)C4=CC(=O)C=C[C@]4(C)[C@@]3(F)[C@@H](O)C[C@@]21C` [Diflorasone Diacetate], the figure is 0.726; as for `C=CCOC(Cn1ccnc1)c1ccc(Cl)cc1Cl` (stereo not drawn) [Enilconazole], 1.15; as for `C[C@@H]1O[C@@H](OC[C@H]2O[C@@H](Oc3cc(O)c4c(=O)cc(-c5ccc(O)cc5)oc4c3)[C@H](O)[C@@H](O)[C@@H]2O)[C@H](O)[C@H](O)[C@H]1O`, 0.703.
As for `C#CCn1c(=O)c2c(ncn2C)n(C)c1=O` ["3,7-Dimethyl-1-propargylxanthine"], the figure is 0.936; as for `COc1cc(O)ccc1C(C)=O`, 1.02; as for `N#C/C(=C\c1ccc(O)c(O)c1)C(=O)NCc1ccccc1` [Tyrphostin AG 490], 1.16.
For `N=C(N)NCCN1CCCCCCC1` [Guanethidine sulfate] the value was 1.08; for `N=C(N)NCCN1CCCCCCC1`, 1.25; for `C#C[C@]1(O)CC[C@H]2[C@@H]3CCC4=CC(=O)CC[C@@H]4[C@H]3CC[C@@]21CC` [Norgestrel-(-)-D], 0.857.
As to `CC(CN(C)C)CN1c2ccccc2Sc2ccccc21` (stereo not drawn), the normalized bacterial growth worked out at 0.903.
As for `CC(CN(C)C)CN1c2ccccc2Sc2ccccc21` (stereo not drawn) [Trimeprazine tartrate], the figure is 0.722; as for `CC1(C)[C@@H](OC(=O)CCC(=O)O)CC[C@]2(C)[C@H]3C(=O)C=C4[C@@H]5C[C@@](C)(C(=O)O)CC[C@]5(C)CC[C@@]4(C)[C@]3(C)CC[C@@H]12` [Carbenoxolone disodium salt], 0.806; as for `CC1(C)[C@@H](OC(=O)CCC(=O)O)CC[C@]2(C)[C@H]3C(=O)C=C4[C@@H]5C[C@@](C)(C(=O)O)CC[C@]5(C)CC[C@@]4(C)[C@]3(C)CC[C@@H]12`, 0.733.
Consider `CC(C(=O)O)c1ccc(C(=O)c2ccccc2)s1` (stereo not drawn) [Tiaprofenic acid], for which the normalized bacterial growth is 1.27.
As for `CC(=O)N(CC(O)CN(C(C)=O)c1c(I)c(C(=O)NCC(O)CO)c(I)c(C(=O)NCC(O)CO)c1I)c1c(I)c(C(=O)NCC(O)CO)c(I)c(C(=O)NCC(O)CO)c1I` (stereo not drawn) [Iodixanol], the figure is 0.662; as for `c1ccc(CN(CC2=NCCN2)c2ccccc2)cc1` [Antazoline hydrochloride], 0.872.
As for `c1ccc(CN(CC2=NCCN2)c2ccccc2)cc1`, the figure is 1.06; as for `Nc1ncnc2n[nH]c(Nc3ccc(F)cc3)c12`, 1.1; as for `O=C(O)C1=CCCN(CCON=C(c2ccccc2)c2ccccc2)C1` [NO-711 hydrochloride], 1.13.
As for `CCCN(CCc1ccccc1)C1CCc2c(O)cccc2C1` (stereo not drawn) [()-PPHT hydrochloride], the figure is 1.05; as for `C/C=C/C/C=C/CCC(=O)[C@H]1O[C@H]1C(N)=O`, 1.24; as for `CNC(=N)NCCC[C@H](N)C(=O)O` [NG-Monomethyl-L-arginine acetate], 1.02.
`CC1=CC(=O)CC(C)(C)C1(O)/C=C/C(C)=C\C(=O)O` (stereo not drawn) yielded a normalized bacterial growth of 1.09.
As for `Cc1cc(O)c2c(O)c3c(O)cccc3cc2c1`, the figure is 0.669; as for `C=CCSCC1Nc2cc(Cl)c(S(N)(=O)=O)cc2S(=O)(=O)N1` (stereo not drawn), 1.21; as for `NC(=O)c1cccc(N)c1` [3-aminobenzamide], 1.07.
For `CCCCCCCCCCCCCC[C@@H](O)[C@@H](O)[C@@H](CO)NC(C)=O` the value was 0.978; for `CC(C)CCCC(C)C1CCC2C3=CCC4CC(O)CCC4(C)C3CCC21C` (stereo not drawn), 1.1.
For `C=CCn1c(=O)c2c(nc(-c3ccc(S(=O)(=O)O)cc3)n2C)n(C)c1=O` ["1-Allyl-3,7-dimethyl-8-p-sulfophenylxanthine"] the value was 0.855; for `C[C@]12CC[C@@H]3c4ccc(OS(=O)(=O)O)cc4CC[C@H]3[C@@H]1CCC2=O`, 0.998; for `C[C@]12CC[C@@H]3c4ccc(OS(=O)(=O)O)cc4CC[C@H]3[C@@H]1CCC2=O` [Estropipate], 1.01.
Take `COc1cccc(OC)c1C(=O)N[C@@H]1C(=O)N2[C@@H]1SC(C)(C)[C@@H]2C(=O)O`: the normalized bacterial growth came out at 0.87.
As for `Cc1ccc(S(=O)(=O)NC(=O)NN2CCCCCC2)cc1` [Tolazamide], the figure is 1.05; as for `COc1cc2c(CCNC(C)=O)c[nH]c2cc1Cl` [6-Chloromelatonin], 1.24.
For `CC(C)(C)CC(C)(C)c1ccc(O)c(Cc2ccc(Cl)cc2Cl)c1` the value was 1.09.
For `C[C@H]1[C@H](C)CC[C@]2(C(=O)O)CC[C@]3(C)C(=CC[C@@H]4[C@@]5(C)C[C@@H](O)[C@H](O)[C@@](C)(CO)[C@@H]5CC[C@]43C)[C@H]12` the value was 0.911 ± 0.07; for `CCOC(=O)c1ccc(N)cc1`, 0.893.
On to `CCN(CC)CCOC(=O)C(c1ccccc1)c1ccccc1`, for which the normalized bacterial growth was determined as 1.
For `OC(CCCN1CCCCC1)(c1ccccc1)c1ccccc1` [Diphenidol hydrochloride] the value was 0.655; for `COc1cc(OC)c2c(=O)c(-c3ccc4c(c3)OCO4)coc2c1`, 0.944; for `CCOc1ccc2nc3cc(N)ccc3c(N)c2c1`, 0.971.
In turn, `CCN(CC)CCNc1ccc(CO)c2sc3ccccc3c(=O)c12` showed a normalized bacterial growth of 1.46.
For `O=c1c(O)cc([C@H]2Oc3cc(O)cc(O)c3C[C@H]2O)cc2c([C@H]3Oc4cc(O)cc(O)c4C[C@H]3O)cc(O)c(O)c12` the value was 1; for `CN(Cc1cnc2nc(N)nc(N)c2n1)c1ccc(C(=O)N[C@@H](CCC(=O)O)C(=O)O)cc1` [Methotrexate hydrate], 1.16; for `O=C(COc1ccc(Cl)cc1)N1CCN(Cc2ccc3c(c2)OCO3)CC1`, 0.793.
Turning to `Cc1ccsc1/C=C/C1=NCCCN1C`, the normalized bacterial growth turned out to be 1.13.
For `Cc1ccsc1/C=C/C1=NCCCN1C` [Morantel tartrate] the value was 0.684; for `CC(Cc1ccc(O)c(O)c1)(NN)C(=O)O` (stereo not drawn) [S-(-)-Carbidopa], 1.16.
Consider `CCCCCCCCCC(=O)NC(CN1CCOCC1)[C@H](O)c1ccccc1` (stereo partly drawn), for which the normalized bacterial growth worked out at 0.88.
As to `CN(C)c1ccc(O)c2c1C[C@H]1C[C@H]3[C@H](N(C)C)C(O)=C(C(N)=O)C(=O)[C@@]3(O)C(O)=C1C2=O` [Minocycline hydrochloride], the normalized bacterial growth is 0.168 ± 0.19.
As for `CN(C)c1ccc(O)c2c1C[C@H]1C[C@H]3[C@H](N(C)C)C(O)=C(C(N)=O)C(=O)[C@@]3(O)C(O)=C1C2=O`, the normalized bacterial growth was 0.248 and 0.315.
For `CCN1CCc2nc(N)oc2CC1` [B-HT 933 dihydrochloride] the value was 0.581; for `C[N+](C)(C)CCOC(=O)CCC(=O)OCC[N+](C)(C)C` [Succinylcholine chloride], 1.08; for `COC1(C)CCC2OC2(C)CCC2C1CC2(C)C` (stereo not drawn), 1.02.
As for `Nc1ccc(CCNc2ncnc3c2ncn3C2OC(CO)C(O)C2O)cc1` (stereo not drawn) [N6-2-(4-Aminophenyl)ethyladenosine], the figure is 0.973; as for `OCC1OC(n2cnc3c(NCCc4ccccc4)ncnc32)C(O)C1O` (stereo not drawn) [N6-2-Phenylethyladenosine], 1.11; as for `OC[C@H]1O[C@@H](n2cnc3c(Nc4ccccc4)ncnc32)[C@H](O)[C@@H]1O` [N6-Phenyladenosine], 1.23.
`CN(C)[C@@H]1C(O)=C(C(N)=O)C(=O)[C@@]2(O)C(O)=C3C(=O)c4c(O)cccc4[C@@](C)(O)[C@H]3[C@H](O)[C@@H]12` [Oxytetracycline dihydrate] registered a normalized bacterial growth of 0.923.
For `CN(C)[C@@H]1C(O)=C(C(N)=O)C(=O)[C@@]2(O)C(O)=C3C(=O)c4c(O)cccc4[C@@](C)(O)[C@H]3[C@H](O)[C@@H]12` the value was 0.0838; for `OC(CN1CCN(c2cccc(Cl)c2)CC1)C(c1ccccc1)c1ccccc1` (stereo not drawn), 0.698; for `Nc1nc(OCc2ccccc2)c2nc[nH]c2n1` [O6-benzylguanine], 0.915.
